From article PMC6858727
No constants are given. Whether binding was seen depends on the method and setting. In cells and extracts the contact can be indirect. Some entries that bind do so weakly or less than the wild type.

Protein sequences, listed by entry. Tags and fused reporters are not part of them.
UniProt Q93009: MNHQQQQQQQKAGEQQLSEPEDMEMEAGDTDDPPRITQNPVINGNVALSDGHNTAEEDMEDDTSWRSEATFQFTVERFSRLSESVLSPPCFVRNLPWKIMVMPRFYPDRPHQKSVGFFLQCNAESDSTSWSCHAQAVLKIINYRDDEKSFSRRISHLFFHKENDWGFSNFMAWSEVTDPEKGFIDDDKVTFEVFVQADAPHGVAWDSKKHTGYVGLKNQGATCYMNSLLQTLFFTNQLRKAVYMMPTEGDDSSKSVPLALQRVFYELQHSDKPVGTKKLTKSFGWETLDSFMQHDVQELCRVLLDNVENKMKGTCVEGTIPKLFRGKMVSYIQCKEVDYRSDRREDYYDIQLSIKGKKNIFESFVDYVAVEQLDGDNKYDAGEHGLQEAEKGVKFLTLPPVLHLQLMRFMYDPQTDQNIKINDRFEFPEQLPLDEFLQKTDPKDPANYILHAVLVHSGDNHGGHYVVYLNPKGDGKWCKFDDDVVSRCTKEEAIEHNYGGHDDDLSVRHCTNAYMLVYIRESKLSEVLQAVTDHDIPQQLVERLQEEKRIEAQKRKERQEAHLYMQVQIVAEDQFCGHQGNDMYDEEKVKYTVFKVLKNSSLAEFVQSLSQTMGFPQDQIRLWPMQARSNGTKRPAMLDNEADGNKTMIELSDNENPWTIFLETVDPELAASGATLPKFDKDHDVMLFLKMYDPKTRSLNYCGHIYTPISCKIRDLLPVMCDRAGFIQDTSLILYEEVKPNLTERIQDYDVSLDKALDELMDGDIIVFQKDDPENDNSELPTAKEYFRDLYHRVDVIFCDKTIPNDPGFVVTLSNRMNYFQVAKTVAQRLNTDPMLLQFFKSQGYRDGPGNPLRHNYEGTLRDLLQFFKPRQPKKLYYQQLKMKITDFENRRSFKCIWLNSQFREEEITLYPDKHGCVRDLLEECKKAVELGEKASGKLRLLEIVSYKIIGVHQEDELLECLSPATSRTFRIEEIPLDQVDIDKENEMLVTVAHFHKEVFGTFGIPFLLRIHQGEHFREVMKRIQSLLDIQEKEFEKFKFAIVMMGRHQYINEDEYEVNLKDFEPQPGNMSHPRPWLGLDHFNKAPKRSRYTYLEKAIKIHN

Legend:
[1] = biological target: Ubiquitin specific protease 7 (USP7), endogenous in DU145 cells (human (endogenous in DU145)) (UniProt Q93009); assay: co-IP; endogenous proteins, DU145 lysate in RIPA buffer; PLK1 or USP7 antibody at 4 °C for 12 h, protein A/G magnetic beads; immunoblot
[2] = biological target: Polo-like kinase 1 (PLK1), endogenous in DU145 cells (human (endogenous in DU145)) (UniProt P53350); assay: as above
[3] = biological target: GST-PLK1(AA) (UniProt P53350); assay: pull-down; GST fusion proteins on glutathione-sepharose resins incubated with DU145 cell lysates at 4 °C for 12 h, washed four times; blot with anti-USP7; only the target purified
[4] = biological target: GST-PLK1(FL) (UniProt P53350); assay: as above

binding [1]	binding [2]	binding [3]	binding [4]	Substance
binds	–	–	–	Polo-like kinase 1 (PLK1), endogenous in DU145 cells (from UniProt P53350 1-603) (enzyme)
–	binds	no binding	binds	Ubiquitin specific protease 7 (USP7), endogenous in DU145 cells (from UniProt Q93009 1-1102) (enzyme)
